Experimental data taken from publication PMC7862700.
This is a selection; strong and weak results do not stand in their true shares. At the low end of the ranking the order means little.

The chains behind the UniProt entries cited, without tags or fusion partners. Where a name states a change or a piece, a line headed by the entry shows the natural chain unless it says otherwise.
UniProt O43186: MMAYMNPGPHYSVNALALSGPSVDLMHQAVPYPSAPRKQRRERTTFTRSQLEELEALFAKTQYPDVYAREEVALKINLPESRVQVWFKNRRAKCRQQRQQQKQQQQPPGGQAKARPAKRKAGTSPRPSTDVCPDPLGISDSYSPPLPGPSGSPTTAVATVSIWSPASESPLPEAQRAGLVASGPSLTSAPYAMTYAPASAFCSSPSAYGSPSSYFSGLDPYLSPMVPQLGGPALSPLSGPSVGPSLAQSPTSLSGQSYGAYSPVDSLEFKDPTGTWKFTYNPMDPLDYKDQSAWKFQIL

Assays:
Assay in all cases: DAPPL (digital affinity profiling via proximity ligation, sequencing)
Settings in all cases: 10 mM Tris-HCl pH 7.5, 50 mM NaCl, 1 mM DTT, 4% glycerol, room temperature, 30 min; GST-TFs on glutathione beads, 16-mer random dsDNA library, 0.1% …; high values mean tight binding; double strand, one strand shown; scale: fold enrichment (6-mer frequency, TF over GST control)
[1] = target: T1, FEV (UniProt Q99581)
T1 sequence: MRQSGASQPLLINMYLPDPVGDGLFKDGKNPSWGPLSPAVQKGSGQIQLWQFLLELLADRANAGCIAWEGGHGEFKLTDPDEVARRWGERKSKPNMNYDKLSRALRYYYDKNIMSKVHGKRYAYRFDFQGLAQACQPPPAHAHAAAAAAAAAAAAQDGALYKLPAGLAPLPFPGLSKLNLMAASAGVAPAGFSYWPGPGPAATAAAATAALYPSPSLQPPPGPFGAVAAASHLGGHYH

[2] = target: CRX (UniProt O43186)
[3] = target: T2, ELF5 (UniProt Q9UKW6-2)
T2 sequence: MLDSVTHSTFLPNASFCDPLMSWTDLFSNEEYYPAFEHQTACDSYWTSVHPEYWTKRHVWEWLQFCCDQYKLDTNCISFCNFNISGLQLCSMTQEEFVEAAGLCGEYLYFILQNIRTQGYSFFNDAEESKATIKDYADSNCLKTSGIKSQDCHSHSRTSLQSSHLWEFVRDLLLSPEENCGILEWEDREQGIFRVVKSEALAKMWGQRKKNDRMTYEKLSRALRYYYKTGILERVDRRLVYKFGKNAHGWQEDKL

GAAGAC gave a binding signal [1] of 0.837, a binding signal [2] of 0.651 and a binding signal [3] of 0.992.

In the case of GAGCCG, the binding signal [1] was 0.425, the binding signal [2] was 0.361 and the binding signal [3] was 0.37.

With GTGTAT the binding signal [1] was 0.888, the binding signal [2] was 0.767 and the binding signal [3] was 0.909.

ATAGAG gave a binding signal [1] of 0.816, a binding signal [2] of 0.933 and a binding signal [3] of 0.848.

For GGGGGT, the binding signal [1] was 0.524, the binding signal [2] was 0.408 and the binding signal [3] was 0.498.

With GGCCAG the binding signal [1] was 0.468, the binding signal [2] was 0.366 and the binding signal [3] was 0.402.

In the case of GACGCC, the binding signal [1] was 0.889, the binding signal [2] was 0.591 and the binding signal [3] was 0.812.

With GGCGGT the binding signal [1] was 0.395, the binding signal [2] was 0.286 and the binding signal [3] was 0.399.

GTCGGC was tested, and the binding signal [1] was 0.36, the binding signal [2] was 0.304 and the binding signal [3] was 0.352.

With GACGGC the binding signal [1] was 0.74, the binding signal [2] was 0.603 and the binding signal [3] was 0.707.

Work on GGTAAG yielded a binding signal [1] of 0.683, a binding signal [2] of 0.823 and a binding signal [3] of 0.824.

TGCAGG showed a binding signal [1] of 0.969, a binding signal [2] of 0.812 and a binding signal [3] of 0.991.

With GAGCCT the binding signal [1] was 0.879, the binding signal [2] was 0.915 and the binding signal [3] was 0.764.

GCACGT was tested, and the binding signal [1] was 0.81, the binding signal [2] was 0.661 and the binding signal [3] was 0.772.

CAGGCT showed a binding signal [1] of 0.798, a binding signal [2] of 0.939 and a binding signal [3] of 0.836.

With AAGAGA the binding signal [1] was 0.844, the binding signal [2] was 0.943 and the binding signal [3] was 0.823.

TAGGTG showed a binding signal [1] of 0.825, a binding signal [2] of 0.947 and a binding signal [3] of 0.766.

Work on TCGGTG yielded a binding signal [1] of 0.514, a binding signal [2] of 0.443 and a binding signal [3] of 0.509.

CCGTGG showed a binding signal [1] of 0.426, a binding signal [2] of 0.34 and a binding signal [3] of 0.433.

For GTCAAT, the binding signal [1] was 0.761, the binding signal [2] was 0.675 and the binding signal [3] was 0.767.

For GGGTTG, the binding signal [1] was 0.817, the binding signal [2] was 0.575 and the binding signal [3] was 0.804.

GGCCGA gave a binding signal [1] of 0.747, a binding signal [2] of 0.723 and a binding signal [3] of 0.684.

GTGTGT was tested, and the binding signal [1] was 0.457, the binding signal [2] was 0.399 and the binding signal [3] was 0.516.

AGAGCC gave a binding signal [1] of 0.731, a binding signal [2] of 0.641 and a binding signal [3] of 0.701.

GAGGTA was tested, and the binding signal [1] was 0.645, the binding signal [2] was 0.57 and the binding signal [3] was 0.682.

For AGGGAC, the binding signal [1] was 0.806, the binding signal [2] was 0.61 and the binding signal [3] was 0.722.

For GTAAGT, the binding signal [1] was 0.693, the binding signal [2] was 0.812 and the binding signal [3] was 0.75.

For GCCAGG, the binding signal [1] was 0.428, the binding signal [2] was 0.337 and the binding signal [3] was 0.425.

TGCGGG showed a binding signal [1] of 0.754, a binding signal [2] of 0.676 and a binding signal [3] of 0.697.

With GGCGGG the binding signal [1] was 0.315, the binding signal [2] was 0.253 and the binding signal [3] was 0.28.

In the case of GCGCGG, the binding signal [1] was 0.831, the binding signal [2] was 0.638 and the binding signal [3] was 0.766.

In the case of AGACAA, the binding signal [1] was 0.811, the binding signal [2] was 0.774 and the binding signal [3] was 0.758.

For GGGCGA, the binding signal [1] was 0.814, the binding signal [2] was 0.663 and the binding signal [3] was 0.779.

TGAGCG was tested, and the binding signal [1] was 0.648, the binding signal [2] was 0.608 and the binding signal [3] was 0.591.

In the case of GACATA, the binding signal [1] was 0.885, the binding signal [2] was 0.765 and the binding signal [3] was 0.854.

Work on TCCGTG yielded a binding signal [1] of 0.475, a binding signal [2] of 0.365 and a binding signal [3] of 0.641.
